# Reference: patent publication EP2601963B1, “N-ISOVALEROYL-L-GLUTAMYL-L-TRYPTOPHAN AS AN AGENT INHIBITING THE FORMATION OF ULCERS IN THE STOMACH AND THE DUODENUM” (Obshestvo S Ogranichennoj Otvetstvennostju "CytoNIR", priority 2010, dated 2015)
# Legend:
# Assay type in all cases: in vivo, male Wistar rats
# [1] = Indomethacin-induced ulcer model, preventive: weight of organs
# Protocol: (§1) Intensity of changes caused by stressors in the internal organs of the animals was evaluated by the relative weight changes of the adrenal glands, thymus, and spleen calculated as a ratio of the organ's weight to the body weight of the animal multiplied by 100.
# The efficacy of the course of preventive treatment with the claimed composition was evaluated 24 hrs. post indomethacin administration. The study was conducted as in Example 1.
# [2] = Indomethacin-induced ulcer model, therapeutic: weight of organs; conditions: treatment 5 days after Indomethacin
# Protocol: as §1
# 2 ml/kg of the ulcerogenic dose of indomethacin equal to 30 mg/kg was administered intraperitoneally. The treatment started 24 hrs. post indomethacin administration and continued for 5 days. The animals in the experimental groups received N-isovaleroyl-L-glutamyl-L-tryptophan or the comparator drug Sucralfate, and the control group received distilled water.
# [3] = Water-immersion stress model: weight of organs
# Protocol: as §1
Substance,Wt. of the Animals ([1]; 0.1 mkg/kg + Indomethacin 20 mg/kg),Wt. of the Animals ([1]; 10 mkg/kg + Indomethacin 20 mg/kg),Wt. of the Animals ([2]; 0.1 mkg/kg),Wt. of the Animals ([2]; 10.0 mkg/kg),Animal Wt. ([3]; 0.1 mkg/kg + stress),Animal Wt. ([3]; 10.0 mkg/kg + stress),Wt. of the Animals ([1]; 200 mg/kg + Indomethacin 20 mg/kg)
N-isovaleroyl-L-glutamyl-L-tryptophan [VGT preparation],219 ± 7 g,216 ± 7 g,217 ± 9 g,224 ± 16 g,236 ± 7 g,239 ± 6 g,–
aluminum complex of beta-D-fructofuranosyl-alpha-D-glucopyranoside octakis (hydrosulfate) [Sucralfate],–,–,–,–,–,–,235 ± 9 g
